Reference: patent publication US9951123B2, “Anti-LPS O11 antibody” (priority 2013, dated 2018)
At least one structure is not confirmed: it was looked up by name or label, or the drawing left a doubt.

Assays:
Assay type in all cases: in vivo, ICR mice
[1] = test system: Pseudomonas aeruginosa clinical isolate No. 31; experiment: Mouse model of lung infection by clinical isolate No. 31 (mixed administration of bacteria and antibody); details: 240 mg/kg subcutaneously immediately after inoculation; 24 hours; FIG. 7
[2] = test system: Pseudomonas aeruginosa clinical isolate No. 12; experiment: Mouse model of lung infection by clinical isolate No. 12 (intravenous administration); details: 240 mg/kg subcutaneously; 24 hours; FIG. 8
[3] = test system: Pseudomonas aeruginosa clinical isolate No. 12; experiment: Mouse model of lung infection by clinical isolate No. 12 (mixed administration of bacteria and antibody); details: 240 mg/kg subcutaneously immediately after inoculation; 24 hours; FIG. 6

**Q.** Which “therapeutic efficacy (viable cell count in lung)” value (shortened to “therapeutic efficacy”) [1] does the source give for C[C@H]1COc2c(N3CCN(C)CC3)c(F)cc3c(=O)c(C(=O)O)cn1c23 [LVFX, levofloxacin] here?
**A.** Its value is “not observed”.

**Q.** What about the “therapeutic efficacy” value [2] of the same compound?
**A.** The value was “therapeutic efficacy was not observed”.

**Q.** What about the “therapeutic efficacy” value [3] of the same compound?
**A.** Its value is “not observed”.
